Drawing on paper PMC6182827, this text covers binding for two molecules.

By UniProt entry, the sequences of proteins in these tests, tags left out.
UniProt P35637: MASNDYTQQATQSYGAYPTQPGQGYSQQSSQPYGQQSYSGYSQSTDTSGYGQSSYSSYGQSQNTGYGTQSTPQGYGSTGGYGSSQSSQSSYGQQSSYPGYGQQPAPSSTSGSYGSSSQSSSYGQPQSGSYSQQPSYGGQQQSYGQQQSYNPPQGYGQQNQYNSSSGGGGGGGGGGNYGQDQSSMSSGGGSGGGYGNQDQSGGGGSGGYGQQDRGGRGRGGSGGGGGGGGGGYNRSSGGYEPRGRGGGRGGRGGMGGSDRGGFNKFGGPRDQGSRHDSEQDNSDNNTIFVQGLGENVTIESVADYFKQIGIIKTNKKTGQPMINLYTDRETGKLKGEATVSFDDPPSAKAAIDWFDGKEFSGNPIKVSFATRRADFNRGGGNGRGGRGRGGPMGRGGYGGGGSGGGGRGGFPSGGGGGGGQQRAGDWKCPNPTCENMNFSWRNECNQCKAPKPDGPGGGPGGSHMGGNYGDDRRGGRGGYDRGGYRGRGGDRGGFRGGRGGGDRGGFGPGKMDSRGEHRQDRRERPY
UniProt O00327: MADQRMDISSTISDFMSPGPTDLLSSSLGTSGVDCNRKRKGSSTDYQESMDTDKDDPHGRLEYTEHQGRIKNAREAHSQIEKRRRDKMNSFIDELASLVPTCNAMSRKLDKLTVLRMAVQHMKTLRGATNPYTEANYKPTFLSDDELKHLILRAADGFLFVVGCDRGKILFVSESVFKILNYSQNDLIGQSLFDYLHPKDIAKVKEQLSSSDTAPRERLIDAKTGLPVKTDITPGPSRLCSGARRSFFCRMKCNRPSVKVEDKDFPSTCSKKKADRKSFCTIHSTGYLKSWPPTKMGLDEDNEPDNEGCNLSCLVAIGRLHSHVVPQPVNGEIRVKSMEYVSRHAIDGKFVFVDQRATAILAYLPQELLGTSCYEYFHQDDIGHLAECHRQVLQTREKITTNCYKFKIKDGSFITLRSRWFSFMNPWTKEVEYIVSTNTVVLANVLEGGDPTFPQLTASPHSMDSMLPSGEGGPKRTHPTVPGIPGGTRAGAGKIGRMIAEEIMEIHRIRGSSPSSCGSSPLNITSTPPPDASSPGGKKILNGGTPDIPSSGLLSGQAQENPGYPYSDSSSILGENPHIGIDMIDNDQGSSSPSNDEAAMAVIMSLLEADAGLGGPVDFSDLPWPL

Results are given in words; binding and its absence hold for the method and conditions named. Binding seen in cells or lysates may run through a third protein. Some results given as binding are weak or reduced against the parent protein; the word gives no strength.

For this assay, the target named is FLAG-FUS (wild-type) (UniProt P35637). Description: co-IP; FLAG-tagged FUS constructs transfected in HEK293T (48 hrs); lysis in NP-40 buffer (150mM NaCl, 1% NP-40, 50 mM Tris pH 8.0, 0.25% deoxycholate); 1 mg lysate pre-cleaned with IgG, anti-FLAG (DYKDDDDK) protein A/G beads overnight; partners detected by western blot. On the technique in general: A western blot detects proteins with antibodies after separation by electrophoresis.

For the molecule BMAL1 (from UniProt O00327 1-626), the binding entry is “binds”.

B1: CLOCK (protein, UniProt O15516 1-846)
chain: MLFTVSCSKMSSIVDRDDSSIFDGLVEEDDKDKAKRVSRNKSEKKRRDQFNVLIKELGSMLPGNARKMDKSTVLQKSIDFLRKHKEITAQSDASEIRQDWKPTFLSNEEFTQLMLEALDGFFLAIMTDGSIIYVSESVTSLLEHLPSDLVDQSIFNFIPEGEHSEVYKILSTHLLESDSLTPEYLKSKNQLEFCCHMLRGTIDPKEPSTYEYVKFIGNFKSLNSVSSSAHNGFEGTIQRTHRPSYEDRVCFVATVRLATPQFIKEMCTVEEPNEEFTSRHSLEWKFLFLDHRAPPIIGYLPFEVLGTSGYDYYHVDDLENLAKCHEHLMQYGKGKSCYYRFLTKGQQWIWLQTHYYITYHQWNSRPEFIVCTHTVVSYAEVRAERRRELGIEESLPETAADKSQDSGSDNRINTVSLKEALERFDHSPTPSASSRSSRKSSHTAVSDPSSTPTKIPTDTSTPPRQHLPAHEKMVQRRSSFSSQSINSQSVGSSLTQPVMSQATNLPIPQGMSQFQFSAQLGAMQHLKDQLEQRTRMIEANIHRQQEELRKIQEQLQMVHGQGLQMFLQQSNPGLNFGSVQLSSGNSSNIQQLAPINMQGQVVPTNQIQSGMNTGHIGTTQHMIQQQTLQSTSTQSQQNVLSGHSQQTSLPSQTQSTLTAPLYNTMVISQPAAGSMVQIPSSMPQNSTQSAAVTTFTQDRQIRFSQGQQLVTKLVTAPVACGAVMVPSTMLMGQVVTAYPTFATQQQQSQTLSVTQQQQQQSSQEQQLTSVQQPSQAQLTQPPQQFLQTSRLLHGNPSTQLILSAAFPLQQSTFPQSHHQQHQSQQQQQLSRHRTDSLPDPSKVQPQ
Turning to B1, the binding entry was “binds”.
